Results deposited as PubChem BioAssay AID1259424 (University of Nebraska Medical Center, 2018).
The deposit covers about 14,000 reagents; this is a random part of them. 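Higher correlation or smaller distance means closer resemblance to KSR1 loss; control wells, including KSR1 knockdowns, recur on many plates.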 Further read-outs or replicates are left out here. Not given: the time to read-out.

Aim: 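Rank knockdowns across the genome by resemblance to the KSR1 depletion profile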 (primary screen)
System: human HCT116 colon cancer cells
Knock-down reagent: siRNA pool against human genes, 50 nM
Measurement: 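Log2 levels of six mRNAs (branched-DNA multiplex), adjusted by two reference genes and the non-targeting median, then scored against the average KSR1 knockdown pattern as Pearson r and euclidean distance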
Scale: mean correlation with KSR1 profile: higher = expression change more like KSR1 knockdown

SURF1 — mean correlation with KSR1 profile: -0.634
EPS8 — mean correlation with KSR1 profile: -0.298
OR2T1 — mean correlation with KSR1 profile: 0.833
RREB1 — mean correlation with KSR1 profile: 0.0584
SFSWAP — mean correlation with KSR1 profile: 0.871
RPP40 — mean correlation with KSR1 profile: -0.598
CACNG3 — mean correlation with KSR1 profile: -0.0406
ZNF665 — mean correlation with KSR1 profile: -0.578
C11orf24 — mean correlation with KSR1 profile: -0.718
HTR2C — mean correlation with KSR1 profile: 0.696
APOC3 — mean correlation with KSR1 profile: 0.477
C11orf58 — mean correlation with KSR1 profile: 0.235
